Data taken from PubChem BioAssay AID330 (DTP/NCI, 2004).
The list shows only some results of the screen, not a fair sample: it is rich in T/C values a quarter to a half above the control, in often repeated tests (any T/C) and in doses without a T/C. Further doses and runs are listed elsewhere. T/C is the treated group as % of the vehicle group. Some entries give survivors of the animals treated and no T/C: the source files T/C as zero there, which appears to mark a toxic dose or a test without result, not a measured value. Some survivor counts are full or nearly so, which does not show that the dose was tolerated: the source hardly ever lists a survival T/C far under the control, and the zero likely stands for such cases as well. Counts of survivors are from the toxicity check (mostly the fifth day) where no day follows; animals may have died later. Schedule codes are those of the source, taken here to give the interval after Q, in days (D) or hours (H), and the number of doses after X. Some doses were run more than once; their values stand side by side, smallest first. Where survival is the endpoint, this PubChem deposit counts one and a half times the control or more as active, and values a quarter to a half above the control carry no call in these data; other NCI protocols may use other cut-offs. Some T/C values carry the count of animals alive at the toxicity check (mostly the fifth day); where none is given, no animal had died by that day. Additions like (4×) stand for listed records that agree.

System: P388 leukemia ip, CD2F1 mice, survival T/C
Assay: NCI In Vivo Anticancer Drug Screen. Data for tumor model P388 Leukemia (intraperitoneal) in CD2F1 (CDF1) mice
Conditions: T/C endpoint: median survival time, higher T/C = longer survival
[1] = dose: 18.75 mg/kg/injection, schedule: Q01DX009 (ip), vehicle: other
[2] = dose: 200.0 mg/kg/injection, schedule: Q01DX005 (ip), vehicle: distilled water + Tween-80

## CC(C)NC(=O)OCc1c(COC(=O)NC(C)C)c(-c2ccc(Cl)c(Cl)c2)n2c1CCC2
dose: 0.58 mg/kg/injection, schedule: Q01DX009 (ip), vehicle: other
  T/C: 128 % of control
dose: 1.17 mg/kg/injection, schedule: Q01DX009 (ip), vehicle: other
  T/C: 133 and 139 % of control
dose: 1.17 mg/kg/injection, schedule: Q01DX009 (ip), vehicle: saline with Tween-80
  T/C: 136 % of control
dose: 1.5 mg/kg/injection, schedule: Q01DX009 (ip), vehicle: other
  T/C: 130 % of control
dose: 1.56 mg/kg/injection, schedule: Q01DX009 (ip), vehicle: other, evaluated on day 30
  T/C: 129 % of control
dose: 1.56 mg/kg/injection, schedule: Q01DX009 (ip), vehicle: other, evaluated on day 60
  T/C: 130 % of control
dose: 1.56 mg/kg/injection, schedule: Q01DX009 (ip), vehicle: saline with Tween-80
  T/C: 134 % of control
dose: 2.34 mg/kg/injection, schedule: Q01DX009 (ip), vehicle: other
  T/C: 142 % of control
dose: 2.34 mg/kg/injection, schedule: Q01DX009 (ip), vehicle: saline with Tween-80
  T/C: 134 % of control
dose: 2.5 mg/kg/injection, schedule: Q01DX009 (ip), vehicle: Klucel (hydroxypropylcellulose) (HPC)
  T/C: 135 % of control
dose: 3.0 mg/kg/injection, schedule: Q01DX005 (ip), vehicle: other
  T/C: 126 % of control [9 of 10 alive]
dose: 3.0 mg/kg/injection, schedule: Q01DX009 (ip), vehicle: other
  T/C: 141 % of control
dose: 3.12 mg/kg/injection, schedule: Q01DX009 (ip), vehicle: Klucel (hydroxypropylcellulose) (HPC)
  T/C: 125 % of control
dose: 3.12 mg/kg/injection, schedule: Q01DX009 (ip), vehicle: distilled water + Tween-80
  T/C: 130, 141, 145, 147, 150 % of control
dose: 3.12 mg/kg/injection, schedule: Q01DX009 (ip), vehicle: other
  T/C: 143 % of control
dose: 3.12 mg/kg/injection, schedule: Q01DX009 (ip), vehicle: saline with Tween-80
  T/C: 145 % of control
dose: 3.13 mg/kg/injection, schedule: Q01DX009 (ip), vehicle: other
  T/C: 140 % of control
dose: 4.69 mg/kg/injection, schedule: Q01DX009 (ip), vehicle: other
  T/C: 145 % of control
dose: 5.0 mg/kg/injection, schedule: Q01DX009 (ip), vehicle: Klucel (hydroxypropylcellulose) (HPC)
  T/C: 127 % of control
dose: 6.0 mg/kg/injection, schedule: Q01DX001 (ip), vehicle: other
  T/C: 126 % of control
dose: 6.0 mg/kg/injection, schedule: Q01DX005 (ip), vehicle: other
  T/C: 133 % of control
dose: 6.25 mg/kg/injection, schedule: Q01DX005 (ip), vehicle: Klucel (hydroxypropylcellulose) (HPC)
  T/C: 144 % of control
dose: 6.25 mg/kg/injection, schedule: Q01DX005 (ip), vehicle: distilled water + Tween-80
  T/C: 118, 124, 126 (2×), 128, 129 (3×), 131 (2×), 136, 138, 140, 141, 143, 150, 151 (2×), 176 % of control
dose: 6.25 mg/kg/injection, schedule: Q01DX009 (ip), vehicle: Klucel (hydroxypropylcellulose) (HPC)
  T/C: 142 % of control
dose: 6.25 mg/kg/injection, schedule: Q01DX009 (ip), vehicle: distilled water + Tween-80, evaluated on day 30
  T/C: 129, 142, 148, 149 (2×), 151 % of control
dose: 6.25 mg/kg/injection, schedule: Q01DX009 (ip), vehicle: distilled water + Tween-80, evaluated on day 45
  T/C: 141 % of control
dose: 9.38 mg/kg/injection, schedule: Q01DX009 (ip), vehicle: saline with Tween-80
  T/C: 145 % of control
dose: 10.0 mg/kg/injection, schedule: Q01DX009 (ip), vehicle: Klucel (hydroxypropylcellulose) (HPC)
  T/C: 141 % of control
dose: 12.0 mg/kg/injection, schedule: Q01DX001 (ip), vehicle: other
  T/C: 130 % of control
dose: 12.0 mg/kg/injection, schedule: Q01DX005 (iv), vehicle: other
  T/C: 125 % of control
dose: 12.5 mg/kg/injection, schedule: Q01DX005 (ip), vehicle: distilled water + Tween-80
  T/C: 121, 125, 132 (2×), 133 (2×), 136, 140, 141 (2×), 142, 143, 145, 147, 149 (2×), 151, 156, 157, 161, 166, 179 % of control
dose: 12.5 mg/kg/injection, schedule: Q01DX005 (ip), vehicle: saline with Tween-80
  T/C: 146 % of control
dose: 12.5 mg/kg/injection, schedule: Q01DX009 (ip), vehicle: Klucel (hydroxypropylcellulose) (HPC)
  T/C: 149 % of control
dose: 12.5 mg/kg/injection, schedule: Q01DX009 (ip), vehicle: distilled water + Tween-80, evaluated on day 30
  T/C: 137, 161, 164, 165, 177, 178 % of control
dose: 12.5 mg/kg/injection, schedule: Q01DX009 (ip), vehicle: distilled water + Tween-80, evaluated on day 45
  T/C: 148 % of control
dose: 15.0 mg/kg/injection, schedule: Q01DX005 (ip), vehicle: saline with Tween-80
  T/C: 125 % of control
[1]
  T/C: 125 % of control
  survivor count: 8 of 8
dose: 20.0 mg/kg/injection, schedule: Q01DX009 (ip), vehicle: Klucel (hydroxypropylcellulose) (HPC)
  T/C: 144 % of control
dose: 24.0 mg/kg/injection, schedule: Q01DX001 (ip), vehicle: other
  T/C: 144 % of control
dose: 24.0 mg/kg/injection, schedule: Q01DX001 (iv), vehicle: other
  T/C: 126 % of control
dose: 24.0 mg/kg/injection, schedule: Q01DX005 (iv), vehicle: other
  T/C: 135 % of control
dose: 25.0 mg/kg/injection, schedule: Q01DX005 (ip), vehicle: distilled water + Tween-80
  T/C: 144, 146, 147, 151, 155, 160 (2×), 161, 163, 165, 166, 167, 168, 169 [5 of 6 alive], 172 (3×), 175 (2×), 178, 189, 193 % of control
dose: 25.0 mg/kg/injection, schedule: Q01DX009 (ip), vehicle: distilled water + Tween-80, evaluated on day 30
  T/C: 147, 151, 181, 187, 194, 226 % of control
dose: 25.0 mg/kg/injection, schedule: Q01DX009 (ip), vehicle: distilled water + Tween-80, evaluated on day 45
  T/C: 222 % of control
dose: 25.0 mg/kg/injection, schedule: Q01DX009 (ip), vehicle: other
  survivor count: 6 of 6
dose: 30.0 mg/kg/injection, schedule: Q01DX005 (ip), vehicle: saline with Tween-80
  T/C: 139 % of control
dose: 37.5 mg/kg/injection, schedule: Q01DX009 (ip), vehicle: other
  survivor count: 6 of 8 and 8 of 8
dose: 48.0 mg/kg/injection, schedule: Q01DX001 (iv), vehicle: other
  T/C: 147 % of control
dose: 48.0 mg/kg/injection, schedule: Q01DX005 (iv), vehicle: other
  survivor count: 7 of 10
dose: 50.0 mg/kg/injection, schedule: Q01DX005 (ip), vehicle: distilled water + Tween-80
  T/C: 129, 159, 166, 167, 169, 172 [5 of 6 alive], 179, 185, 186, 193, 195, 196, 197, 198, 200, 202, 203, 206, 211, 213, 219, 225 % of control
dose: 50.0 mg/kg/injection, schedule: Q01DX005 (ip), vehicle: saline with Tween-80
  T/C: 135 % of control
dose: 50.0 mg/kg/injection, schedule: Q01DX009 (ip), vehicle: distilled water + Tween-80, evaluated on day 30
  T/C: 115, 130, 131, 158, 160, 177 % of control
dose: 50.0 mg/kg/injection, schedule: Q01DX009 (ip), vehicle: distilled water + Tween-80, evaluated on day 45
  T/C: 166 % of control
dose: 50.0 mg/kg/injection, schedule: Q01DX009 (ip), vehicle: other
  survivor count: 2 of 6 and 8 of 10
dose: 75.0 mg/kg/injection, schedule: Q01DX009 (ip), vehicle: other
  survivor count: 4 of 8
dose: 75.0 mg/kg/injection, schedule: Q01DX009 (ip), vehicle: saline with Tween-80
  survivor count: 8 of 8
dose: 80.0 mg/kg/injection, schedule: Q01DX009 (ip), vehicle: Klucel (hydroxypropylcellulose) (HPC)
  T/C: 126 % of control
dose: 100.0 mg/kg/injection, schedule: Q01DX005 (ip), vehicle: distilled water + Tween-80
  T/C: 86 [5 of 6 alive], 91, 129, 135, 147, 148, 165, 184 (2×), 186, 193, 198, 209, 211, 219, 221, 222, 223, 227, 229, 256, 261 % of control
dose: 100.0 mg/kg/injection, schedule: Q01DX005 (ip), vehicle: other
  survivor count: 5 of 6
dose: 100.0 mg/kg/injection, schedule: Q01DX009 (ip), vehicle: other
  survivor count: 3 of 10
dose: 120.0 mg/kg/injection, schedule: Q01DX005 (ip), vehicle: saline with Tween-80
  T/C: 130 % of control
[2]
  T/C: 137 % of control
  survivor count: 5 of 6

## CCCCCCCCCCNCCSSc1ccccc1
dose: 50.0 mg/kg/injection, schedule: Q01DX005 (ip), vehicle: Klucel (hydroxypropylcellulose) (HPC)
  survivor count: 5 of 5
dose: 100.0 mg/kg/injection, schedule: Q01DX005 (ip), vehicle: Klucel (hydroxypropylcellulose) (HPC)
  survivor count: 3 of 5
dose: 200.0 mg/kg/injection, schedule: Q01DX005 (ip), vehicle: Klucel (hydroxypropylcellulose) (HPC)
  survivor count: 0 of 5
